Among the data in paper PMC5395157 are binding values, retold here.

No constants are given. Whether binding was seen depends on the method and setting. Some entries that bind do so weakly or less than the wild type. Tags and fused reporters may be left off the sequences shown.

The target in this experiment is N-terminal domain of the ferric uptake regulator (FUR) protein from E. coli, as the last domain of the TTT-FUR fusion (E. coli) (UniProt P0A9A9). Put plainly: crystal structure; hanging drop vapor diffusion at 17°C, 8 mg/mL protein, well 100 mM Tris pH 8.0 and 3.5 M NaCl, no cadmium; 2.3 Å, space group C2, one molecule in the asymmetric unit; both purified.

B1: N-terminal domain of the ferric uptake regulator (FUR) protein from E. coli, as the last domain of the TTT-FUR fusion (domain or fragment, UniProt P0A9A9 1-83)
chain: MTDNNTALKKAGLKVTLPRLKILEVLQEPDNHHVSAEDLYKRLIDMGEEIGLATVYRVLNQFDDAGIVTRHNFEGGKSVFELT
For B1, the binding result is “binds”.
